Experimental data as given in article PMC5719040.
No constants are given. Whether binding was seen depends on the method and setting. Binding seen in cells or lysates may run through a third protein. Some binding calls cover weakened binding; strength is not graded here.

Sequences of proteins named here, by UniProt entry; tags and fusion partners are left off. Residues count along the entry.
UniProt P31423, residues 33-912: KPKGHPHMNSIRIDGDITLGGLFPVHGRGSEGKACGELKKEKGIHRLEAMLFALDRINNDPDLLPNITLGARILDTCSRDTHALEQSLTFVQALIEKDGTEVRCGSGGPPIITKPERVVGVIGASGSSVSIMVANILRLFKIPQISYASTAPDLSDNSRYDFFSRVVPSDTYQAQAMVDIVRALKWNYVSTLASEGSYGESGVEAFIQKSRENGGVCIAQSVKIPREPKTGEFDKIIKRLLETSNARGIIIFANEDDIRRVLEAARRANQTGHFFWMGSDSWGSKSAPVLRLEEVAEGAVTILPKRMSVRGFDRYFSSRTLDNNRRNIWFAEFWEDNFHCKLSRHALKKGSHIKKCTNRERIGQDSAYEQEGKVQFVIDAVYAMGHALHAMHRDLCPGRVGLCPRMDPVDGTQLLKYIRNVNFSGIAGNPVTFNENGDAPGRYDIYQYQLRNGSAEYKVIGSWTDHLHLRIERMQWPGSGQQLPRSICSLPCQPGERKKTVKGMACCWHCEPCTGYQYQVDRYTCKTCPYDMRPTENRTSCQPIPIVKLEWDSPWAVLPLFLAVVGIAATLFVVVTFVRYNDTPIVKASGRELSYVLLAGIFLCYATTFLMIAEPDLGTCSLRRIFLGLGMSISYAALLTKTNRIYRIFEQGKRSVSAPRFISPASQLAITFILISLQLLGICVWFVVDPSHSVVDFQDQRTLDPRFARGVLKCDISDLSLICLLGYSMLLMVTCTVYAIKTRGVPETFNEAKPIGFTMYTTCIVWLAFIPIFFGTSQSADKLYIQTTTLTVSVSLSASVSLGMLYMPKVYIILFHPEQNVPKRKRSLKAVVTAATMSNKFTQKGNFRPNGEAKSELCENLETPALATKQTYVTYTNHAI
UniProt P31422, residues 23-879: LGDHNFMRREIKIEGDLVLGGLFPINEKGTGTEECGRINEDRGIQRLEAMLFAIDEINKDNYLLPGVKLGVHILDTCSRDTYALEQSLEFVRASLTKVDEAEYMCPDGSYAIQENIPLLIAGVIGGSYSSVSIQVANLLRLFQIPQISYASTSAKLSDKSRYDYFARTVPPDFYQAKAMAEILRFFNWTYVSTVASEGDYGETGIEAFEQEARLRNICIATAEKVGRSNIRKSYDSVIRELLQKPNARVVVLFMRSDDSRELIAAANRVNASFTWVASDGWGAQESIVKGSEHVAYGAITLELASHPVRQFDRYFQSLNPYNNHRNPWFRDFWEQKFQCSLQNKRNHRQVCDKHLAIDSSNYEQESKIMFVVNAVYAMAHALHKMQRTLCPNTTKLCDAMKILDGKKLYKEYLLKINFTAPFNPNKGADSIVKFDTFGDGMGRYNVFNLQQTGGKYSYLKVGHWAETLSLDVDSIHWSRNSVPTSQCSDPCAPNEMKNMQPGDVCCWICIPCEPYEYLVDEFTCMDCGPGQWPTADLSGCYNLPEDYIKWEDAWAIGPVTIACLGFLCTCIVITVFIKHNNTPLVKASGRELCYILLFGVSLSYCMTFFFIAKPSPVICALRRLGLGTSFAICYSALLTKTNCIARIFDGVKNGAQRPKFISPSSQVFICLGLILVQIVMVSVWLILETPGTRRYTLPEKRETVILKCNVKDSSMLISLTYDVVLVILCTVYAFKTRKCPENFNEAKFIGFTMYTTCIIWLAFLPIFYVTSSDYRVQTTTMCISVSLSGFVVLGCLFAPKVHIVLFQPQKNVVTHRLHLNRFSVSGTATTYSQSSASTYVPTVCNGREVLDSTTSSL
UniProt P31421, residues 19-872: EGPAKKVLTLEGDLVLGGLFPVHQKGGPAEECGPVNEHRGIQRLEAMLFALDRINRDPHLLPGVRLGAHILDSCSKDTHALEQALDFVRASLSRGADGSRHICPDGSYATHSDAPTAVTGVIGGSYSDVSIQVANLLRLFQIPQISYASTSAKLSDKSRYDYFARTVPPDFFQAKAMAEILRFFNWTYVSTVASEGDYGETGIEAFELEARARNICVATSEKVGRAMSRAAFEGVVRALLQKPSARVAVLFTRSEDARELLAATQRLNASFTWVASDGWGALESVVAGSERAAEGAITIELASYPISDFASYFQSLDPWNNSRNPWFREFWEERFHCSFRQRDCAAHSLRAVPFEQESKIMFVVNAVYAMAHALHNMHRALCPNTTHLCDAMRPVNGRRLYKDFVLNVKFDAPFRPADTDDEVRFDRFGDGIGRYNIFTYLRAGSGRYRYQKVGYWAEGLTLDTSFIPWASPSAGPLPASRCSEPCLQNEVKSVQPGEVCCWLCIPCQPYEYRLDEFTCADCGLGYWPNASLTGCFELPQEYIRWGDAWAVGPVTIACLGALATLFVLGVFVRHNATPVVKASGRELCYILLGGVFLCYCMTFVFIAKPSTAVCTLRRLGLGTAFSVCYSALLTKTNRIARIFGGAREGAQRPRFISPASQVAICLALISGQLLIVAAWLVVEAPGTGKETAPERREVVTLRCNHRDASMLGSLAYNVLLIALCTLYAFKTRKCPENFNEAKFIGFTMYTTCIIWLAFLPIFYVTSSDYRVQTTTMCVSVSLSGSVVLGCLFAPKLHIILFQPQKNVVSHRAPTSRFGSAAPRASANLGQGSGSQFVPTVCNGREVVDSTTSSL

Legend:
[1] = biological target: rat SNAP-tagged mGlu4 (rat) (UniProt P31423); experiment: FRET or BRET; TR-FRET on HEK-293 cells cotransfected with rat SNAP-mGlu3 or SNAP-mGlu4 (labelled with SNAP-Lumi4-Tb), HA-tagged mGlu2 and EAAC1; the mGlu2 subunit is reported by the c-Myc-tagged mGlu2-specific nanobody DN1 and 200 nM anti-c-Myc-d2; with 100 µM LY341495 or 100 µM glutamate; Krebs buffer
[2] = biological target: rat SNAP-tagged mGlu3 (rat) (UniProt P31422); experiment: as above

Q: Which binding [1] does the source give for “rat mGlu2 subunit, HA-tagged (no SNAP tag) (from UniProt P31421 19-872) (receptor)” here?
A: Its binding is “binds”.

Q: What about the binding [2] of the same substance?
A: Its binding is “binds”.
